Test results published in doi:10.1101/2020.02.18.955021.
These are yes or no findings as the source states them, for the method shown. Some entries that bind do so weakly or less than the wild type.

Amino acid sequences for entries named in this document (tags omitted). Residues count along the entry.
UniProt P21730: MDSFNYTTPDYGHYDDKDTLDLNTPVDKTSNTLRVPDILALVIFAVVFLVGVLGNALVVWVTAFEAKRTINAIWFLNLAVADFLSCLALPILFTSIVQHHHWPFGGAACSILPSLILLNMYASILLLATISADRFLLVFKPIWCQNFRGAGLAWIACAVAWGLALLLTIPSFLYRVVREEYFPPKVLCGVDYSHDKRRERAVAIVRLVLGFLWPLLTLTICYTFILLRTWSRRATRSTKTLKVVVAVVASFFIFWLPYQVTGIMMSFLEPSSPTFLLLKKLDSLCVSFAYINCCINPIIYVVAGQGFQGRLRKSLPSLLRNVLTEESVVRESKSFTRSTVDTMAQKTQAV
UniProt P01031, residues 678-751: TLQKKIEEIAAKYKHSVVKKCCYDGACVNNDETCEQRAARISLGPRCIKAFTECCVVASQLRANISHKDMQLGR

Legend:
[1] = target: T1, zebrafish C5a receptor expressed on U937 cells (U937-dreC5aR) (zebrafish (Danio rerio)) (UniProt P0C7U5); assay: flow cytometry on cells
T1 sequence: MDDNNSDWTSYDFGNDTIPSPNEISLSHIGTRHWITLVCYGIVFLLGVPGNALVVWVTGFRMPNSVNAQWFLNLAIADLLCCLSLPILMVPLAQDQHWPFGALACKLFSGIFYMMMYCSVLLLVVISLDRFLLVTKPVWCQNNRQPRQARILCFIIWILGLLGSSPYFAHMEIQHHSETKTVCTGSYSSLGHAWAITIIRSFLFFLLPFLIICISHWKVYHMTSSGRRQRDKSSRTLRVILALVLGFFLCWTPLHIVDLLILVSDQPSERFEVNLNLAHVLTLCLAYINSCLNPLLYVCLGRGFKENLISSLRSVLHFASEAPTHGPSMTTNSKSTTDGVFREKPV

[2] = target: human C5a receptor expressed on U937 cells (U937-hsaC5aR) (human) (UniProt P21730); assay: flow cytometry on cells

binding [1]: no binding (tested: 10 μg/mL)
binding [2]: binds
Substance: FITC-labelled recombinant human C5a (from UniProt P01031 678-751) (ligand)
